Results are given in words; binding and its absence hold for the method and conditions named. For some assays here: In cells and extracts the contact can be indirect. Some results given as binding are weak or reduced against the parent protein; the word gives no strength. Tags and fused reporters may be left off the sequences shown.

Assay [1] deals with T1, FLAG-tagged full-length NLRP1 (human), Q9C000.
T1 chain: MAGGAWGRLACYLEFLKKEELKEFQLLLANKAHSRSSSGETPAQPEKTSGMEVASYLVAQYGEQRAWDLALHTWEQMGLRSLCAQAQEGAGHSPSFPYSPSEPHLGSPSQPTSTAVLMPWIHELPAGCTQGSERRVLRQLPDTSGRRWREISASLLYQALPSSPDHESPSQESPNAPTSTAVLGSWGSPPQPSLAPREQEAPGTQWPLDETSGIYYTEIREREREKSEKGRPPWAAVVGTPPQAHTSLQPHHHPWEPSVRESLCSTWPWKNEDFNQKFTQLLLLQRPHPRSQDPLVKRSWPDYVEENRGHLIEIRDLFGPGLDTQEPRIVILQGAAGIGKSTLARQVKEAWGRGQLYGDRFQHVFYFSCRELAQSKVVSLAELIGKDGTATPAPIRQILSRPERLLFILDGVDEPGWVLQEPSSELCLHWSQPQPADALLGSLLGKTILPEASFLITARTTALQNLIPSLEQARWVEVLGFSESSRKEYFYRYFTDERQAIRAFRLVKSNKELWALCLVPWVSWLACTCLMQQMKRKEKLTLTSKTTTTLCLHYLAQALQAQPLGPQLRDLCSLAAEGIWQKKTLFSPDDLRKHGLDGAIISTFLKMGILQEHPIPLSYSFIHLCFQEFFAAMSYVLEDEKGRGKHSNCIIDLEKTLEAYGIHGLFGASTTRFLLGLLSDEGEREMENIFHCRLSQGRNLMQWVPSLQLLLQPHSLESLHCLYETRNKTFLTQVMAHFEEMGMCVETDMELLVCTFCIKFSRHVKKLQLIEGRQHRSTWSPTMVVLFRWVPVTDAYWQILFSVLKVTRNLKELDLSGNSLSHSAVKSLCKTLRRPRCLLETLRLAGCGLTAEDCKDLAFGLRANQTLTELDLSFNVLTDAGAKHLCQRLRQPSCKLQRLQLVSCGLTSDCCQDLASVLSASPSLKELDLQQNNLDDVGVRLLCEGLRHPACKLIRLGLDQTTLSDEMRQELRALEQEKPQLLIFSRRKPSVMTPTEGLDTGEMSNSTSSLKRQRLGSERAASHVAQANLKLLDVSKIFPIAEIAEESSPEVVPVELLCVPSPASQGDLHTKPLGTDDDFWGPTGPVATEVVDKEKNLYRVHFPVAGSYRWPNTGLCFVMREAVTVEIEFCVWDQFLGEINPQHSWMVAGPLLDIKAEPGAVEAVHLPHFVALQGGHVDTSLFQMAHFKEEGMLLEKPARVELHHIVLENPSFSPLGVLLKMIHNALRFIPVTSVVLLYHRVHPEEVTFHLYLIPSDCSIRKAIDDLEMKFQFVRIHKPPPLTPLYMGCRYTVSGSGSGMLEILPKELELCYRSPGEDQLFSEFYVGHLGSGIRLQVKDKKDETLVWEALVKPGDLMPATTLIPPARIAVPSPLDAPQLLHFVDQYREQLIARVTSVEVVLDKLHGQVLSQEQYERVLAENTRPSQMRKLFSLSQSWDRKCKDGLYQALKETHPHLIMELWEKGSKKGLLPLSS
Description: co-IP. The settings on record: remark: other sources report otherwise.

The target of assay [2] is T1, FLAG-tagged full-length NLRP1 (human), …. Nature of the assay: native gel or EMSA. The conditions noted are these: remark: other sources report otherwise. For orientation: Mobility shift assays separate free from complexed probe on a gel.

B1: DPP9S (short splice isoform of DPP9), transfected, Q86TI2-1 1-863 (enzyme)
chain: MATTGTPTADRGDAAATDDPAARFQVQKHSWDGLRSIIHGSRKYSGLIVNKAPHDFQFVQKTDESGPHSHRLYYLGMPYGSRENSLLYSEIPKKVRKEALLLLSWKQMLDHFQATPHHGVYSREEELLRERKRLGVFGITSYDFHSESGLFLFQASNSLFHCRDGGKNGFMVSPMKPLEIKTQCSGPRMDPKICPADPAFFSFINNSDLWVANIETGEERRLTFCHQGLSNVLDDPKSAGVATFVIQEEFDRFTGYWWCPTASWEGSEGLKTLRILYEEVDESEVEVIHVPSPALEERKTDSYRYPRTGSKNPKIALKLAEFQTDSQGKIVSTQEKELVQPFSSLFPKVEYIARAGWTRDGKYAWAMFLDRPQQWLQLVLLPPALFIPSTENEEQRLASARAVPRNVQPYVVYEEVTNVWINVHDIFYPFPQSEGEDELCFLRANECKTGFCHLYKVTAVLKSQGYDWSEPFSPGEDEFKCPIKEEIALTSGEWEVLARHGSKIWVNEETKLVYFQGTKDTPLEHHLYVVSYEAAGEIVRLTTPGFSHSCSMSQNFDMFVSHYSSVSTPPCVHVYKLSGPDDDPLHKQPRFWASMMEAASCPPDYVPPEIFHFHTRSDVRLYGMIYKPHALQPGKKHPTVLFVYGGPQVQLVNNSFKGIKYLRLNTLASLGYAVVVIDGRGSCQRGLRFEGALKNQMGQVEIEDQVEGLQFVAEKYGFIDLSRVAIHGWSYGGFLSLMGLIHKPQVFKVAIAGAPVTVWMAYDTGYTERYMDVPENNQHGYEAGSVALHVEKLPNEPNRLLILHGFLDENVHFFHTNFLVSQLIRAGKPYQLQIYPNERHSIRCPESGEHYEVTLLHFLQEYL
For the molecule B1, in assay [1], the binding entry is on record as “binds”.

B2: FLAG-tagged full-length NLRP1, Q9C000 (protein)
chain: T1 chain
With B2, the binding result in assay [2] is “binds”.

Source of the values: publication doi:10.1101/260919.
